These are yes or no findings as the source states them, for the method shown. In cells and extracts the contact can be indirect. Some results given as binding are weak or reduced against the parent protein; the word gives no strength.
Biological target: AtbZIP63 (UniProt B9DGI8)
Assay: split reporter; BiFC: nYFP and cYFP fusions (pSPYNE-35S, pSPYCE-35S) transiently expressed in Nicotiana benthamiana leaf epidermis by Agrobacterium infiltration; YFP fluorescence by microscopy

- binding: binds
B1: AtbZIP63 (protein, UniProt B9DGI8 1-314)
chain: MEKVFSDEEISGNHHWSVNGMTSLNRSASEWAFNRFIQESSAAADDGESTTACGVSVSSPPNVPVDSEEYRAFLKSKLNLACAAVAMKRGTFIKPQDTSGRSDNGGANESEQASLASSKATPMMSSAITSGSELSGDEEEADGETNMNPTNVKRVKRMLSNRESARRSRRRKQAHLSELETQVSQLRVENSKLMKGLTDVTQTFNDASVENRVLKANIETLRAKVKMAEETVKRLTGFNPMFHNMPQIVSTVSLPSETSNSPDTTSSQVTTPEIISSGNKGKALIGCKMNRTASMRRVESLEHLQKRIRSVGDQ
